Data as given in PubChem BioAssay AID493014 (National Center for Advancing Translational Sciences (NCATS), 2011).
In all, about 340,000 compounds went through this assay and about 170 (0.05%) were called active. Inconclusive results, whose numbers are uncertain, are shown with a selection of clear calls. Calls follow the shape of the dose curve; as a rule, active = well fitted inhibition curve with a large enough effect in the signal ratio, with a control signal flat (not every such curve was filed as active); inconclusive = small, poorly fitted or top-dose-only effect, or effect the other way, or a change in a side signal; inactive = flat fitted curve, though single readings scatter; the % refers to the signal ratio. Potencies beside an inconclusive call are fits to weak or partial responses and may not hold up.

Assay: qHTS Assay to Find Inhibitors of Chronic Active B-Cell Receptor Signaling;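 as to activity change, negative = inhibition: plate controls were basal doxycycline-induced cells for no effect and cells given 10 µM MG132 for full effect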
Conditions: ABC-DLBCL IkBa-CBG/CBR reporter, luminescence ratio (green luciferase fused to IkBa over red control in TMD8 lymphoma cells), 4 h; activity change, negative = inhibition: at 46.1 µM (top of the series) unless noted
Method in brief: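 Doxycycline induced both beetle luciferases in TMD8 lymphoma cells; IKK-driven degradation limits the IkappaBalpha-fused green signal, while red luminescence normalises for cell number and nonspecific effects. Compounds tested up to 46 uM, 4 hrs.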
Potency is read from the fitted curve at half-maximal effect.

| Compound | Potency | activity change, negative = inhibition |
| --- | --- | --- |
| COc1cccc(C(=O)N2CCN(C(=O)c3ccc(-c4ccccc4)cc3)CC2)c1OC | inconclusive: 20 µM [falling, single point] | – |
| COc1cccc(CN2CCN(C(=O)c3oc4c(F)cccc4c3C)CC2=O)c1 | – | inconclusive: -15% |
| CCCCC1CCC(c2ccc(C(N)=O)cc2)CC1 (centres undefined) | – | inactive: -0.55% |
| O=C(CCS(=O)(=O)c1ccc(Cl)cc1)N1CCN(S(=O)(=O)c2cccs2)CC1 | – | inconclusive: 3.79% |
| COc1cccc(Oc2nnnn2-c2ccccc2)c1 | – | inactive: 1.07% |
| COc1ccc(/C=C/c2nc3ccccc3c(=O)n2-c2cccc(C(F)(F)F)c2)cc1 | – | inconclusive: 6.12% |
| COc1ccc(CNC(=O)CN(C2CCCCC2)S(C)(=O)=O)cc1 | – | inactive: -6.18% |
| Cc1cc(Br)ccc1OCC(=O)NC1CCCC1 | – | inconclusive: 4.17% |
| O=C(N/N=C/c1ccc[nH]1)c1ccc2c(c1)OCO2 | inconclusive: 12.6 µM [falling, single point] | – |
| CCOc1ccc(-n2nnnc2SCC(=O)NC2CCCC2)cc1 | – | inconclusive: -6.6% |
| O=c1c2oc3ccccc3c2[nH]c(=S)n1-c1ccc(F)cc1 | inconclusive: 31.6 µM [rising, single point] | – |
| O=C(COc1ccccc1Br)c1ccc2c(c1)OCO2 | – | inactive: 1.28% |
| COc1ccc(-c2c(C#Cc3ccccc3)c3ccccc3n2C)cc1 | – | inconclusive: 27.6% |
| CCc1nnc(NS(=O)(=O)c2ccc(NC(=O)c3ccccc3)cc2)s1 | – | inactive: 1.49% |
| Nc1c(C(=O)Nc2ccc(F)cc2)sc(=S)n1-c1ccccc1F | inconclusive: 4.47 µM [falling, partial curve, poor fit] | – |
| CCNCc1ccc(OCc2ccccc2F)c(OC)c1 | – | inactive: -0.264% |
| CCCCCNC(=O)CCn1c(=O)[nH]c2ccccc2c1=O | – | inactive: 9.89% |
| O=C(Cn1ncc2c(=O)oc3ccccc3c21)NCC1COc2ccccc2O1 (centres undefined) | – | inconclusive: -2.17% |
| Cc1nn(-c2ccccc2Cl)c(Cl)c1/C=C(\C#N)C(N)=O | inconclusive: 32.6 µM [falling, partial curve, poor fit] | – |
| CC(=O)Nc1ccc(NC(=O)CSc2nnc(-c3cccs3)n2N)cc1 | – | inconclusive: 2.93% |
| CCCN1C(=O)C(Cc2nc3ccccc3c(=O)n2C)c2ccccc21 (centres undefined) | – | inconclusive: -0.676% |
| COCc1c(C(=O)N/N=C\c2cccs2)nnn1-c1nonc1N | – | inactive: -0.749% |
| COc1ccccc1N1CC(O)=C(c2nc3ccccc3c(=O)[nH]2)C1=N | inconclusive: 9.2 µM [falling, partial curve] | – |
| COc1ccc(-c2ccc([C@H]3[C@H]4C=CC[C@@H](C)[C@@H]4C(=O)N3Cc3ccccc3)c(F)c2)cc1 | – | inactive: 11.8% |
| COc1ccccc1C(=O)OCc1c(F)cccc1Cl | inconclusive: 35.5 µM [falling, single point] | – |
| CCc1nnc(N/N=C/c2ccccc2F)n1N | inconclusive: 35.5 µM [falling, single point] | – |
| O=C(O)c1cc(C(=O)O)c(-c2ccccc2)c(C(=O)O)c1 | – | inactive: -1.61% |

A different layout for part of the listing above:
CCCCCNC(=O)CCn1c(=O)[nH]c2ccccc2c1=O
  activity change, negative = inhibition: inactive: 9.89%
O=C(Cn1ncc2c(=O)oc3ccccc3c21)NCC1COc2ccccc2O1 (centres undefined)
  activity change, negative = inhibition: inconclusive: -2.17%
Cc1nn(-c2ccccc2Cl)c(Cl)c1/C=C(\C#N)C(N)=O
  Potency: inconclusive: 32.6 µM [falling, partial curve, poor fit]

(cont.)

| Compound | Potency | activity change, negative = inhibition |
| --- | --- | --- |
| O=C(O)CCc1ccc(-c2cccs2)n1CC(=O)Nc1ccccc1C(F)(F)F | – | inactive: 14.5% |
| CCOc1ccc2cc(C(=O)c3ccccc3)c(=O)oc2c1 | – | inconclusive: -0.387% |
| CC(=O)c1c(C)n(CC(=O)NCc2ccco2)c2ccccc12 | – | inactive: -10.4% |
| CCN(C(=O)CSc1nc(-c2cccs2)nc2ccccc12)C1CCS(=O)(=O)C1 (centres undefined) | – | inactive: 6% |
| COc1ccc(S(=O)(=O)c2ccc(O)cc2)cc1 | – | inconclusive: 3.59% |
| C=CCn1c(SCCOc2ccccc2)nnc1C(C)NC(=O)c1ccccc1 (centres undefined) | – | inactive: 1.75% |
| O=C(COc1ccccc1)NCC1COc2ccccc2O1 (centres undefined) | – | inconclusive: -1.33% |
| CNC(=O)C(=O)Nc1ccc2c(c1)N(S(=O)(=O)c1cccs1)CCC2 | – | inactive: 0.599% |
| CCOC(=O)C1(Cc2ccccc2)CCN(Cc2cnn(C(C)C)c2)CC1 | – | inactive: -3.85% |
| COc1cc(NC(=O)c2ccco2)c(OC)cc1NC(=O)Nc1ccc(Cl)cc1 | – | inactive: 11.1% |
| CCOC(=O)C1=C(N)Oc2c(c(=O)[nH]c3ccccc23)C1c1ccccc1 (centres undefined) | – | inconclusive: 10.9% |
| CCOc1ccccc1C1C2CCCCC2(O)CCN1C(=O)c1cccs1 (centres undefined) | – | inconclusive: 12.7% |
| C#CCOCCOCCOCCNc1nc(N2CCN(C(=O)CCCCCCCCCCNC(=O)[C@@H](CCSC)n3cc(CCO)nn3)CC2)nc(N2CCN(C(=O)CCCCCCCCCCNC(=O)[C@H](CCSC)n3cc(CCO)nn3)CC2)n1 | inconclusive: 2.59 µM [rising, partial curve, poor fit] | – |
| COc1ccccc1CNC(=O)COc1ccccc1C(=O)c1cnn(-c2ccccc2)c1 | inconclusive: 18.4 µM [falling, partial curve, poor fit] | – |
| O=C(Nc1nnc(-c2ccc3c(c2)CCCC3)o1)C1CCCCC1 | – | inactive: -4.38% |
| CCCn1c2ccc(F)cc2c2nnc(SCCN3CCOCC3)nc21 | – | inactive: -2.04% |
| COc1ccc(-c2noc(C3CCCN(S(=O)(=O)c4ccc(C)c(Cl)c4)C3)n2)cc1OC (centres undefined) | – | inconclusive: -0.0467% |
| Cc1ccc(C(=O)N/N=C/c2ccc(-c3cccc(C(F)(F)F)c3)o2)cn1 | inconclusive: 11.2 µM [falling, partial curve] | – |
| CCN1C(=O)c2ccccc2Sc2ccc(C(=O)NCCC(C)C)cc21 | – | inconclusive: -6.75% |
| C=C(C)CNC(=S)NN=C1c2ccccc2-c2ccccc21 | – | inconclusive: 16% |
| FC(F)(F)c1ccc(Oc2ccc3cc(Br)ccc3c2)nc1 | – | inconclusive: 5.63% |
| COc1ccc2c(c1)OC/C(=C/c1cccs1)C2=O | – | inconclusive: -4.37% |
| CCOc1ccc(-c2c(C(=O)N/N=C(\C)c3cccs3)nnn2-c2nonc2N)cc1 | – | inactive: 8.31% |
| Cc1ccc(NC(=O)Nc2ccc3c(c2)CCC3)cc1 | – | inconclusive: 6.38% |
| Cc1cc(C(=O)N/N=C/c2cn[nH]c2-c2ccccc2)cs1 | inconclusive: 29.1 µM [falling, single point] | – |
| Cc1cc(C(=O)NNC(=O)/C=C/c2ccc(F)cc2)c(C)o1 | – | inconclusive: -12.1% |
| COC(=O)c1sccc1NC(=O)Nc1cccc(C)c1 | – | inconclusive: -1.74% |
